Test results: publication doi:10.1101/2025.09.03.674114
These are yes or no findings as the source states them, for the method shown. In cells and extracts the contact can be indirect. Some binding calls cover weakened binding; strength is not graded here.

Chains of the proteins cited; added tags and fusions are not shown.
UniProt Q5S007: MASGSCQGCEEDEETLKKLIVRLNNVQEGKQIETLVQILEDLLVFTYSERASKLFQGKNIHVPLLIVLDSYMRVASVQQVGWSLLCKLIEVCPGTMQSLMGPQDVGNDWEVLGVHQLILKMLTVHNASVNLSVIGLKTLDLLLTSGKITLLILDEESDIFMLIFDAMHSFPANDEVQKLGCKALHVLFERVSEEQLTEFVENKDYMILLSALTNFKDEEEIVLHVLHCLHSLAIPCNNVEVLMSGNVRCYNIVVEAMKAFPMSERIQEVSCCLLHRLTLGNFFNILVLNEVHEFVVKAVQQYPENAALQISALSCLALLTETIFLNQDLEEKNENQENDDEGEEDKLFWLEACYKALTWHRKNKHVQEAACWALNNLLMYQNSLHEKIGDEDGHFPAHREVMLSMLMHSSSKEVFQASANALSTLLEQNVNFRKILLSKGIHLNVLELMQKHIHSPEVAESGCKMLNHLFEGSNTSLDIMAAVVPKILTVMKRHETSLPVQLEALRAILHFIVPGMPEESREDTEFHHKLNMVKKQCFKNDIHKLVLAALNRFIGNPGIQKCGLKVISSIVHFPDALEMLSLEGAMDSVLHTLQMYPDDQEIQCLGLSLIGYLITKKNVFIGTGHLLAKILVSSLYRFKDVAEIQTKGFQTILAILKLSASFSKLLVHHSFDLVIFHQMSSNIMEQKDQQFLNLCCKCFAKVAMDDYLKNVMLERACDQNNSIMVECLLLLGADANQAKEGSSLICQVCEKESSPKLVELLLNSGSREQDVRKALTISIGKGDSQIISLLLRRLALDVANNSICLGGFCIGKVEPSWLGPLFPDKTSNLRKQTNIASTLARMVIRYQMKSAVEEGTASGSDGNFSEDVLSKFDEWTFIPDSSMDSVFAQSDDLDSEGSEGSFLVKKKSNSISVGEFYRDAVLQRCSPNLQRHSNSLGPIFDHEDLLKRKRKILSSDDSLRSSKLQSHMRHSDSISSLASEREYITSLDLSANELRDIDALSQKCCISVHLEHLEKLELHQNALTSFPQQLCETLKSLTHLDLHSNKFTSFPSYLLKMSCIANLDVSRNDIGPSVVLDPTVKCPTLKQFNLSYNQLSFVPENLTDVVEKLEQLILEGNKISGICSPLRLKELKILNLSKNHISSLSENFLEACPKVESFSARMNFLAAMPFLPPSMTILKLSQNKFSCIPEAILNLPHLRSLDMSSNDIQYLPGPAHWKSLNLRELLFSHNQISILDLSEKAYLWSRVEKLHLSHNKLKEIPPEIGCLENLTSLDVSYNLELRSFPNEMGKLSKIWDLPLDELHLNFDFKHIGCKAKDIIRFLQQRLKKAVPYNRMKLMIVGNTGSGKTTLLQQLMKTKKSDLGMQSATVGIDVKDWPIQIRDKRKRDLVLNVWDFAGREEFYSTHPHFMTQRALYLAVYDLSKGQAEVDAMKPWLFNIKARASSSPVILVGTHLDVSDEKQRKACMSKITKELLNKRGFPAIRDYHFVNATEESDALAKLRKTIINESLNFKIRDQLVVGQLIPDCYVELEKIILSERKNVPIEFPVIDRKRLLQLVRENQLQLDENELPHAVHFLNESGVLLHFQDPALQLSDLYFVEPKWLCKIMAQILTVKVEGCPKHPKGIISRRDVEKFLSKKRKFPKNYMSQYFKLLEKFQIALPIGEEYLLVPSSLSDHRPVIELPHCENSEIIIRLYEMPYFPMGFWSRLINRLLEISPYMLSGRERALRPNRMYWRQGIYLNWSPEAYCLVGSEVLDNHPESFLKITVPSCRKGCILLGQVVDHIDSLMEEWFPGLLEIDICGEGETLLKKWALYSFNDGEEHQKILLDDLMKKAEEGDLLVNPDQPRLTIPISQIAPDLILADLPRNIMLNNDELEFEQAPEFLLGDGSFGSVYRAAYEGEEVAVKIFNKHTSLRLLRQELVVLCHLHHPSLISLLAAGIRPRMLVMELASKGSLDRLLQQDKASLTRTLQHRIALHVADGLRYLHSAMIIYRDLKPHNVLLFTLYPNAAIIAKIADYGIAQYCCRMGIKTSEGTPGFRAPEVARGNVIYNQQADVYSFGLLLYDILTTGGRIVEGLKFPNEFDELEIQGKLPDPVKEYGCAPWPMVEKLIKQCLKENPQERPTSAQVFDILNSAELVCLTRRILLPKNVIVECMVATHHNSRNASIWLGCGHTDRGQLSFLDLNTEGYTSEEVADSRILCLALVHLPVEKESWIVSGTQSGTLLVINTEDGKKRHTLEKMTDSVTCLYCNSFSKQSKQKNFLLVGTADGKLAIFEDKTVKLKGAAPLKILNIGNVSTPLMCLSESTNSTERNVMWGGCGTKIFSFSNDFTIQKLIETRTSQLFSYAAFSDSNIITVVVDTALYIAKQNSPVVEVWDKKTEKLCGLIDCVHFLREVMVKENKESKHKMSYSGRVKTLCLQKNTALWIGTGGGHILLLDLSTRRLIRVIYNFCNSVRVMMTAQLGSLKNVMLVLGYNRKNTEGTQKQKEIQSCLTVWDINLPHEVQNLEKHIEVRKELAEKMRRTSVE
UniProt Q8IY33: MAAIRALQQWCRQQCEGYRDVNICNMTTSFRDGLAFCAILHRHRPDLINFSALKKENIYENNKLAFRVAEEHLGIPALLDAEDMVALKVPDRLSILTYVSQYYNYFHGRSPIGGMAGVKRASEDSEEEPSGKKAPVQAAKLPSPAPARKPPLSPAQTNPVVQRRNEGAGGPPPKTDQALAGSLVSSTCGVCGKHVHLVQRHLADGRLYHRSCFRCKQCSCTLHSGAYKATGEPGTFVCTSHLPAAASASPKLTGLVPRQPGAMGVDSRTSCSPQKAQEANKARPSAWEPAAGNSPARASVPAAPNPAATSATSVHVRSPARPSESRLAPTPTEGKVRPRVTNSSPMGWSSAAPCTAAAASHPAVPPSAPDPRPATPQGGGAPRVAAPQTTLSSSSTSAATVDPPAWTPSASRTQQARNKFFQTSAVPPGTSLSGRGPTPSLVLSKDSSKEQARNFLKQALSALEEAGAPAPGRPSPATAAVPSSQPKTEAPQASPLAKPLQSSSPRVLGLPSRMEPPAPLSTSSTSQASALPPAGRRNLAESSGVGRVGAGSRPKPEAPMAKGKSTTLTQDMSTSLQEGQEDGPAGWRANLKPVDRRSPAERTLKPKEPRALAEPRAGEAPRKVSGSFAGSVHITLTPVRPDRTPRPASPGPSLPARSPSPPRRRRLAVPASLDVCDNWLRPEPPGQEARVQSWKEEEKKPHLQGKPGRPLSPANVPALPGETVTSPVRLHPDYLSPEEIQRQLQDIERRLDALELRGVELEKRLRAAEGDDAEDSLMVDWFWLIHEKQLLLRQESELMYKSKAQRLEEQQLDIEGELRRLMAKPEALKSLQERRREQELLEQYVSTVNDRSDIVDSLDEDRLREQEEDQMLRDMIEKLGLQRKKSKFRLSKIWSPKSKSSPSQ

Target: 3xFLAG-turboID-LRRK2 (Leucine-rich repeat kinase 2) (UniProt Q5S007)
Assay: co-IP

binding: binds
Substance: C-terminally HA-tagged MICALL2 (from UniProt Q8IY33 1-904)
